# Test: DNP hyperpolarisation of acetic anhydride with Finlandic acid trityl radical, with or without gadolinium complex (solid state polarisation build up)
# Assay type: physicochemical
# Details: for change of end polarisation of acetic anhydride by addition of the gadolinium complex, in comparison to ex. 1 (no gadolinium complex): factor / enhancement (times) versus radical only
# Procedure: A stock solution of radical was prepared by dissolving Finlandic acid (2.7 mg, 2.6 μmol) in unlabeled acetic anhydride (22.2 mg) yielding a solution with a concentration of 105 μmol/g.
# [1] = 13C DNP, acetic anhydride/1,1'-13C2 acetic anhydride, Finlandic acid radical 12.5 mM, gadolinium complex added as labelled (none for acetic anhydride, Example 1), FIG. 1
Compound,end polarisation value [1] [%],"end polarisation value (Example 5: 1,1'-13C2 acetic anhydride, Finlandic acid 12.8 mM, no gadolinium complex) [%]","change of end polarisation of acetic anhydride by addition of the gadolinium complex, in comparison to ex. 1 (no gadolinium complex)","change of end polarisation of acetic anhydride by addition of the gadolinium complex, in comparison to ex. 1 (no gadolinium complex) (listed as gadolinium complex of formula (I))","degree of polarisation of acetic anhydride relative to that obtainable with Gd-DOTAM (II) or complex of formula (III) (in the presence of a DNP agent, Figure 1) [times higher]"
"CCCCCCCCCCCCCCCCCCN(CCCCCCCCCCCCCCCCCC)C(=O)CN1CCN(CC(=O)[O-])CCN(CC(=O)[O-])CCN(CC(=O)[O-])CC1.[Gd+3] [Gadolinium complex II, [10-[2-(dioctadecylamino)-2-oxoethyl]-1,4,7,10-tetraazacyclododecane-1,4,7-triacetato(3-)]gadolinium, reference compound]",6,,,,
"CC(O)CN1CCN(CC(=O)[O-])CCN(CC(=O)[O-])CCN(CC(=O)[O-])CC1.[Gd+3] (centres unmarked) [Gadolinium complex III, [10-(2-hydroxypropyl)-1,4,7,10-tetraazacyclododecane-1,4,7-triacetato(3-)]gadolinium, reference compound]",7.5,,,,
CC(=O)OC(C)=O [acetic anhydride],5,5,,,
"[[α1,α4,α7-tris[(phenylmethoxy)methyl]-1,4,7,10-tetraazacyclododecane-1,4,7,10-tetraacetato(4-)]gadolinate(1-)]hydrogen [Gadolinium complex I]",15,,2,about 2,2

# Reference: patent US9693828B2, “Composition comprising acetic anhydride and a gadolinium complex, and method for the use in hyperpolarisation in MRI analysis” (BRACCO IMAGING S.P.A., priority 2011, dated 2017)
